Patent US8658699B2, “Chemical permeation enhancers enhance nerve blockade by toxins” (priority 2008, dated 2014)

Tested on: C2C12 myotubes
Conditions: high value favorable; for % Survival / EC100 min: ratio of in vitro survival to EC100min; for MBD / (100 − % Survival): ratio of maximum block duration to in vitro cytotoxicity

Molecule | % Survival / EC100 min | MBD / (100 − % Survival)
CCCCCCCCCCCC[N+](C)(C)C.[Br-] [DDAB, Dodecyl-trimethyl-ammonium Bromide] | 5.0 | 6.4
CCCCCCCC[N+](C)(C)C.[Br-] [OTAB, Octyl-trimethyl-ammonium Bromide] | 1.7 | 7.5
CCCCCCCCCCCCOS(=O)(=O)[O-].[Na+] [SLS, Sodium Dodecyl Sulfate] | 5.7 | 2.9
CCCCCCCCOS(=O)(=O)[O-].[Na+] [SOS, Sodium Octyl Sulfate] | 0.2 | 5.5
polysorbate 20 [TW 20] | 24 | 27
polysorbate 80 [TW 80] | 2.0 | 6.0
